According to the supplement of paper PMC10849652:
The other results are listed elsewhere or left out.

Chains of the proteins cited; added tags and fusions are not shown. Lines headed by an entry give the natural chain unless they say otherwise; changes in a name come on top.
UniProt Q01432: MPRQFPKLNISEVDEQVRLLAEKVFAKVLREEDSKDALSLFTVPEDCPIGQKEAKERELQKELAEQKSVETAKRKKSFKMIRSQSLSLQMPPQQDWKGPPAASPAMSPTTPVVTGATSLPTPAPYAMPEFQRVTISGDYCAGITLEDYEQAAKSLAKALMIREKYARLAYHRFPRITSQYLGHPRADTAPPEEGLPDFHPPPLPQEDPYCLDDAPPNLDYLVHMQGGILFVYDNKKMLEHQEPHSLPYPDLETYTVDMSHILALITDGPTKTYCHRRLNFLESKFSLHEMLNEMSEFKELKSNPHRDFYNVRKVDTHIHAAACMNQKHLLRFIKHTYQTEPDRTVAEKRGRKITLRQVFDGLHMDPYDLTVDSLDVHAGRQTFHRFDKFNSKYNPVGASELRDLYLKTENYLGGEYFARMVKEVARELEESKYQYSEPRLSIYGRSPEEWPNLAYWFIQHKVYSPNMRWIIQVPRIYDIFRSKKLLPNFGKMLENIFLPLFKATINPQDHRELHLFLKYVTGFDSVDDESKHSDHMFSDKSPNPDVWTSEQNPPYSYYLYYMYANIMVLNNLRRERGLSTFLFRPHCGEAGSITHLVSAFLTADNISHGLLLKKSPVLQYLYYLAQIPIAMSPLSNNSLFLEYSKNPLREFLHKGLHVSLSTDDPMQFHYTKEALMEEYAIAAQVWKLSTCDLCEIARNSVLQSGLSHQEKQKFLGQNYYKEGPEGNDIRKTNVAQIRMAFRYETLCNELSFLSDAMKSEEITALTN
UniProt Q6ULP2: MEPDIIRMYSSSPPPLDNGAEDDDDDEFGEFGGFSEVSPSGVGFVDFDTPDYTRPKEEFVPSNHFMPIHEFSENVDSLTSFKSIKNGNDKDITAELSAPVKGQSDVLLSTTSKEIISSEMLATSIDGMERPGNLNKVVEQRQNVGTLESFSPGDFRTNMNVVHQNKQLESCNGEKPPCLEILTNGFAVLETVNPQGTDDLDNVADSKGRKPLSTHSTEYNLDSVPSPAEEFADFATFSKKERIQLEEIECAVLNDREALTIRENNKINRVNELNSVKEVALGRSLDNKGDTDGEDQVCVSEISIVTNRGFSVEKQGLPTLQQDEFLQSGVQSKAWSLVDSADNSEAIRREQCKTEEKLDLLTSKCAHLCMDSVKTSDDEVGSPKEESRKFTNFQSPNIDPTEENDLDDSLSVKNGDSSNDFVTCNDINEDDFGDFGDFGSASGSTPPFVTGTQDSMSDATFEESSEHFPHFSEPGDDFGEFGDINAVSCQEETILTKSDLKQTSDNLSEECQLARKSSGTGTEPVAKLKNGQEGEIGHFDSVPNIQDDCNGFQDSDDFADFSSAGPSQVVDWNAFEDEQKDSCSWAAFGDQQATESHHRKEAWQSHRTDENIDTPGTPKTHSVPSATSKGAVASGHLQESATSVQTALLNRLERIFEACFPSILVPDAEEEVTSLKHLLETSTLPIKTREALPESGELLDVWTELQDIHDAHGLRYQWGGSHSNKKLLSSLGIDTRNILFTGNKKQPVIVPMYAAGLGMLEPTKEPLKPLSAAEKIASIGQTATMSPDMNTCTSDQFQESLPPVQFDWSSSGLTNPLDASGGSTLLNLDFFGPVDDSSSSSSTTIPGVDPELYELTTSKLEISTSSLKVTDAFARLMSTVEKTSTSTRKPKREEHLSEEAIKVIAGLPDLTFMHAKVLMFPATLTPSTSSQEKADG
UniProt P27144: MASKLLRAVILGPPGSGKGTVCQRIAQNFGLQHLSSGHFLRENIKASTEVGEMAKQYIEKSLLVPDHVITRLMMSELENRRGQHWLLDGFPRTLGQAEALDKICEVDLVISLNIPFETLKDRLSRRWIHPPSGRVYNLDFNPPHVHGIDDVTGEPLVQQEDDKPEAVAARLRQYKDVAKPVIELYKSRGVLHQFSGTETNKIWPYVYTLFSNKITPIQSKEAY
UniProt Q9Y303: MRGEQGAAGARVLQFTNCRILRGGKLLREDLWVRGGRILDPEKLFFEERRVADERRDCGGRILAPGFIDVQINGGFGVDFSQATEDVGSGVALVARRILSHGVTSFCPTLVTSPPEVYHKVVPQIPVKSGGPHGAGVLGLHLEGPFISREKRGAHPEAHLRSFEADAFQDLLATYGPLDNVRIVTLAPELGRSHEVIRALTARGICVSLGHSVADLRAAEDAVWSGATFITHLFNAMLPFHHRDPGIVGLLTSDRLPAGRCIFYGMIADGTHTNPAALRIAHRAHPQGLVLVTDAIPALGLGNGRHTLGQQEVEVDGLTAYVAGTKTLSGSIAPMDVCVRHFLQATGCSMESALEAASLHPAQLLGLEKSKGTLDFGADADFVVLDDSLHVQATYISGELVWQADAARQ
UniProt Q9UIJ7: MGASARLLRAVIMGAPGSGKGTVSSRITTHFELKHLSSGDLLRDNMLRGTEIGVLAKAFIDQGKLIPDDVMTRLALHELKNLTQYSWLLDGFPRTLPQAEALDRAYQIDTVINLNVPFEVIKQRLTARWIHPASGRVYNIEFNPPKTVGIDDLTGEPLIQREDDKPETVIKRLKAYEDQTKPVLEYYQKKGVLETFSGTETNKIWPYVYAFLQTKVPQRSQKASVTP
UniProt Q9NP73: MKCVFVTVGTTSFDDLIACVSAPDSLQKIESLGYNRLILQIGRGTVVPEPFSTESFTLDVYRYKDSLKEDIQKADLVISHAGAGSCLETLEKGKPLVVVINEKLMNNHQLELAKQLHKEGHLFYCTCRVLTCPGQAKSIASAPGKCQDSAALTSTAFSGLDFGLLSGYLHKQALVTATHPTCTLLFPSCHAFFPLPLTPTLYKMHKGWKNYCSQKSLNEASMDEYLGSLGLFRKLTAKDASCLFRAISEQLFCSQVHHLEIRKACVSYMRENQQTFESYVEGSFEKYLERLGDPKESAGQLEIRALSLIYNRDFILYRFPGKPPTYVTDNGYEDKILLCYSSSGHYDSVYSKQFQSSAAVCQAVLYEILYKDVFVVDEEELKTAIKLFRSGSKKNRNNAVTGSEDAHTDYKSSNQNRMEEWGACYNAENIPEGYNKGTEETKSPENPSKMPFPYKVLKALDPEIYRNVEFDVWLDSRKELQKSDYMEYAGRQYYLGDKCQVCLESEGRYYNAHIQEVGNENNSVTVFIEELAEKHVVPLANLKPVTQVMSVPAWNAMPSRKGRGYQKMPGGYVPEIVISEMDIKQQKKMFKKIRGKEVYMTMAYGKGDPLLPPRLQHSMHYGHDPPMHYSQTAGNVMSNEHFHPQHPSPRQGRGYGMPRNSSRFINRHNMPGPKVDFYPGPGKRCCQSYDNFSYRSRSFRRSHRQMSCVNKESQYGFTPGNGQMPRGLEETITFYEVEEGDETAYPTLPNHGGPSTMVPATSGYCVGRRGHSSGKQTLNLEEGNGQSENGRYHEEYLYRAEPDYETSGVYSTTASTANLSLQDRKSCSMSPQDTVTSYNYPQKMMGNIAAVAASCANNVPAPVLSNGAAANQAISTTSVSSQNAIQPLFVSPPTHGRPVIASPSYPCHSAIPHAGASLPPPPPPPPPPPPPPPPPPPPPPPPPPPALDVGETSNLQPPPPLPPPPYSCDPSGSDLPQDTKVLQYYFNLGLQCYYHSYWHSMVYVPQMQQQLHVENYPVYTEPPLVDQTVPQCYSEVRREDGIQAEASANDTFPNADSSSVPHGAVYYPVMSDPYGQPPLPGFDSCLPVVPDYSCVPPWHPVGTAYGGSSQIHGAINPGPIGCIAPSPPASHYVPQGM
UniProt P30038: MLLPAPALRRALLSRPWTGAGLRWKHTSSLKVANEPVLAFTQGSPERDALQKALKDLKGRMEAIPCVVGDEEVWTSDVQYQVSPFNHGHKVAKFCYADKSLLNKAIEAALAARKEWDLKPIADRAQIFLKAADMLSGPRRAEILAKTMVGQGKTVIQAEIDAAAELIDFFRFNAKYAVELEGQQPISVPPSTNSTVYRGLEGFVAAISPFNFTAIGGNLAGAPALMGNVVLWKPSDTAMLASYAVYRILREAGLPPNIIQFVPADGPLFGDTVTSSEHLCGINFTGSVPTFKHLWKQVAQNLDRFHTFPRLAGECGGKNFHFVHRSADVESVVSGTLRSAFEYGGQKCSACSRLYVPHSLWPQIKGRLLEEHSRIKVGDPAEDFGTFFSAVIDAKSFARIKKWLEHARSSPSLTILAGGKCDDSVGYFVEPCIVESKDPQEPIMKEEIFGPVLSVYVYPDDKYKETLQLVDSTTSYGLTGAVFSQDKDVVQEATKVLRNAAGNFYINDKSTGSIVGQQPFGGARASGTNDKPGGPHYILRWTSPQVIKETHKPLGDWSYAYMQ
UniProt Q9BT22: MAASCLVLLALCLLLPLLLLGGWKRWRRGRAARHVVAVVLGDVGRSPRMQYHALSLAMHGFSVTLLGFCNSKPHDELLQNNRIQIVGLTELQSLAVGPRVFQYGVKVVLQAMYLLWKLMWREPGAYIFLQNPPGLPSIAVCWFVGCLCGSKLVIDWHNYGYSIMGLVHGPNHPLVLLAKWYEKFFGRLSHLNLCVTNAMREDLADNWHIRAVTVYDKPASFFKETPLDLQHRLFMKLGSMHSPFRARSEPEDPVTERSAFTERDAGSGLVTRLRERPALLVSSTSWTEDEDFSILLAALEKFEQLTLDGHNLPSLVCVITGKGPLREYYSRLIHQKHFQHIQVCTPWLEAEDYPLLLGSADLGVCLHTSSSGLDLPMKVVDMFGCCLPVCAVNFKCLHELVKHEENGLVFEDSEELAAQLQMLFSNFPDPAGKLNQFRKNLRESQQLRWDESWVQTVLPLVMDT
UniProt Q8IZ83: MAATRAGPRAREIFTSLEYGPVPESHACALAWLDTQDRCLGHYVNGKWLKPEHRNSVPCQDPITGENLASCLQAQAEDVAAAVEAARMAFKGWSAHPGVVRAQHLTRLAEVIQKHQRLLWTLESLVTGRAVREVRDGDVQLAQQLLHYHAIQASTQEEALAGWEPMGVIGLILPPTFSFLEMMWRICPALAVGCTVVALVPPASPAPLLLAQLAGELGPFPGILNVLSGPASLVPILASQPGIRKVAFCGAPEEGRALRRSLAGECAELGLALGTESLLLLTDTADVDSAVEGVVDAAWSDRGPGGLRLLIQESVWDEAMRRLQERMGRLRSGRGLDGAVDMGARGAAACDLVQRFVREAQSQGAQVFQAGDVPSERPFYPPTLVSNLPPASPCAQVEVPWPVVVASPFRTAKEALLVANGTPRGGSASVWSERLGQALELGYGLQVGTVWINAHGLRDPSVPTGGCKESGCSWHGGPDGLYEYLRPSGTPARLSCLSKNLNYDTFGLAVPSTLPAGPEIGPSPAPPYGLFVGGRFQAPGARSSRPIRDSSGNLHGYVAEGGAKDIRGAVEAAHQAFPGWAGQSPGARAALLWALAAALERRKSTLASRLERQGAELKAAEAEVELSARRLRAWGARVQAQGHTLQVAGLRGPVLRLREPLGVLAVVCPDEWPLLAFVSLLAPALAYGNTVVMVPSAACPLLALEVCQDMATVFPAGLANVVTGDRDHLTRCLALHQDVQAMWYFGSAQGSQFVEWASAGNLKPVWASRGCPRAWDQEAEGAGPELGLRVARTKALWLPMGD
UniProt O15120: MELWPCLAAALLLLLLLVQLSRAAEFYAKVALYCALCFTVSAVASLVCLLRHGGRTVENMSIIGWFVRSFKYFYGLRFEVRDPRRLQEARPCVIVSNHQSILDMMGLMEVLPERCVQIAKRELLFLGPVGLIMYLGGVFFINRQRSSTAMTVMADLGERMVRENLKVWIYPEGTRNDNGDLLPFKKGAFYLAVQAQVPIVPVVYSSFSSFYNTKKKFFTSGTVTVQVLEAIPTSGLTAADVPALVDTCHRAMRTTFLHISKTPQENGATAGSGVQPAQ
UniProt Q9Y672: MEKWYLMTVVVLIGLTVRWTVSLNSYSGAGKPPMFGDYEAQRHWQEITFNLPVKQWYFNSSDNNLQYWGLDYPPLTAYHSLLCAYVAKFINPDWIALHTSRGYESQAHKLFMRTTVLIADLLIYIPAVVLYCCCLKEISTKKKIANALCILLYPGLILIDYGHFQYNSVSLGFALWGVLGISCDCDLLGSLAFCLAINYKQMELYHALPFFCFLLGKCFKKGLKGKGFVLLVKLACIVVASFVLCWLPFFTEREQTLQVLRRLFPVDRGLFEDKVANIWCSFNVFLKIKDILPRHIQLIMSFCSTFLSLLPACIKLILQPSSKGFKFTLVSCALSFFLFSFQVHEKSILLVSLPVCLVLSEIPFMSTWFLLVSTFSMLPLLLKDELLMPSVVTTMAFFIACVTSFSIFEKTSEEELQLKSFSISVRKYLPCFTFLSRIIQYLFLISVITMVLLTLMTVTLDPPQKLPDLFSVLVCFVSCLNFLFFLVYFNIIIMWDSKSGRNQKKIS

Columns and labels:
Test in all cases: log2 fold change, soluble protein after heating vs DMSO (PISA); higher = thermal stabilisation; K562 cells, 10 uM, 30 min; active = over 0.2 and 3.5 SD of the protein, either way, in both replicates (recomputed)
saracatinib = compound: CN1CCN(CCOc2cc(OC3CCOCC3)c3c(Nc4c(Cl)ccc5c4OCO5)ncnc3c2)CC1 [saracatinib]
In short: (§1)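 Values are thermal stability changes relative to control samples and are taken from duplicates. They are stated as log2 fold changes. Before quantification by TMTpro 16plex LC-MS/MS with equalised channel sums, K562 cells at 2×10^6 cells/mL were treated with 10 μM compound for 30 min, heated in aliquots for 3 min across 48°C-58°C, pooled, extracted in PBS with 0.5% NP-40 at 4°C, and centrifuged at 21,000xg for 90 min to give the soluble supernatant.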

sotrastaurin = compound: CN1CCN(c2nc(C3=C(c4c[nH]c5ccccc45)C(=O)NC3=O)c3ccccc3n2)CC1 [sotrastaurin]
In short: as §1

alvocidib = compound: CN1CC[C@H](c2c(O)cc(O)c3c(=O)cc(-c4ccccc4Cl)oc23)[C@H](O)C1 [alvocidib]
In short: as §1

Tubastatin A = compound: CN1CCc2c(c3ccccc3n2Cc2ccc(C(=O)NO)cc2)C1 [Tubastatin A]
In short: as §1

[1] = compound: CNC(=O)C1=CC=CC=C1NC2=NC(=NC=C2Cl)NC3=C(C=C(C=C3)N4CCOCC4)OC
In short: as §1

defactinib = compound: CNC(=O)c1ccc(Nc2ncc(C(F)(F)F)c(NCc3nccnc3N(C)S(C)(=O)=O)n2)cc1 [defactinib]
In short: as §1

rucaparib = compound: CNCc1ccc(-c2[nH]c3cc(F)cc4c3c2CCNC4=O)cc1 [rucaparib]
In short: as §1

[2] = compound: CNc1nc(-c2ccc3c(N)n[nH]c3c2)cc(N2C[C@@H](C(=O)NC3CCCCC3)CC[C@H]2C)n1
In short: as §1

encorafenib = compound: COC(=O)N[C@@H](C)CNc1nccc(-c2cn(C(C)C)nc2-c2cc(Cl)cc(NS(C)(=O)=O)c2F)n1 [encorafenib]
In short: as §1

[3] = compound: COC(=O)[C@H](CCSC)NC(=O)C1=C(C=C(C=C1)NC[C@H](CS)N)C2=CC=CC=C2
In short: as §1

[4] = compound: COC1=CC=C(C=C1)CN2C=CC3=C2C=C(C=C3)C(=O)NO
In short: as §1

filanesib = compound: CON(C)C(=O)N1N=C(c2cc(F)ccc2F)S[C@@]1(CCCN)c1ccccc1 [filanesib]
In short: as §1

zotarolimus = compound: CO[C@H]1C[C@@H]2CC[C@@H](C)[C@@](O)(O2)C(=O)C(=O)N2CCCC[C@H]2C(=O)O[C@H]([C@H](C)C[C@@H]2CC[C@H](n3cnnn3)[C@H](OC)C2)CC(=O)[C@H](C)/C=C(\C)[C@@H](O)[C@@H](OC)C(=O)[C@H](C)C[C@H](C)/C=C/C=C/C=C/1C [zotarolimus]
In short: as §1

idasanutlin = compound: COc1cc(C(=O)O)ccc1NC(=O)[C@@H]1N[C@@H](CC(C)(C)C)[C@](C#N)(c2ccc(Cl)cc2F)[C@H]1c1cccc(Cl)c1F [idasanutlin]
In short: as §1

alisertib = compound: COc1cc(Nc2ncc3c(n2)-c2ccc(Cl)cc2C(c2c(F)cccc2OC)=NC3)ccc1C(=O)O [alisertib]
In short: as §1

[5] = compound: COc1cc2nc(-c3cc(F)ccc3O)nc(N[C@@H]3CNC[C@H]3C(C)(C)O)c2cc1OC
In short: as §1

gefitinib = compound: COc1cc2ncnc(Nc3ccc(F)c(Cl)c3)c2cc1OCCCN1CCOCC1 [gefitinib]
In short: as §1

[6] = compound: COc1cccc2cc(-c3nc([C@H]4CC[C@H](C(=O)O)CC4)n4ncnc(N)c34)[nH]c12
In short: as §1

lapatinib = compound: CS(=O)(=O)CCNCc1ccc(-c2ccc3ncnc(Nc4ccc(OCc5cccc(F)c5)c(Cl)c4)c3c2)o1 [lapatinib]
In short: as §1

pictilisib = compound: CS(=O)(=O)N1CCN(Cc2cc3nc(-c4cccc5[nH]ncc45)nc(N4CCOCC4)c3s2)CC1 [pictilisib]
In short: as §1

Measured: log2 fold change

AMPD3 isoform 4 (UniProt Q01432)
inactive: saracatinib -0.038 | sotrastaurin 0.04 | alvocidib -0.043 | Tubastatin A -0.058 | [1] -0.046 | defactinib -0.031 | rucaparib -0.03 | [2] -0.001 | encorafenib -0.008 | [3] 0.024 | [4] -0.041 | filanesib -0.102 | zotarolimus 0.01 | idasanutlin 0.029 | alisertib -0.023 | [5] 0.019 | gefitinib -0.009 | [6] 0.071 | lapatinib 0.01 | pictilisib 0.131

AHCYL2 (UniProt Q96HN2)
inactive: saracatinib 0.012 | sotrastaurin 0.014 | alvocidib 0.078 | Tubastatin A -0.093 | [1] 0.037 | defactinib 0.017 | rucaparib -0.037 | [2] -0.013 | encorafenib -0.059 | [3] 0.011 | [4] 0.02 | filanesib -0.058 | zotarolimus -0.002 | idasanutlin -0.096 | alisertib -0.016 | [5] 0.041 | gefitinib 0.043 | [6] 0.028 | lapatinib -0.013 | pictilisib 0.075

AFTPH isoform 9 (UniProt Q6ULP2)
inactive: saracatinib -0.007 | sotrastaurin 0.036 | alvocidib -0.03 | Tubastatin A 0.048 | [1] -0.017 | defactinib -0.087 | rucaparib 0 | [2] -0.048 | encorafenib -0.02 | [3] 0.033 | [4] -0.03 | filanesib 0.085 | zotarolimus 0.01 | idasanutlin 0.053 | alisertib -0.006 | [5] -0.001 | gefitinib 0.004 | [6] -0.053 | lapatinib -0.04 | pictilisib -0.17

AGO2 (UniProt Q9UKV8)
inactive: saracatinib 0.047 | sotrastaurin 0.018 | alvocidib 0.105 | Tubastatin A -0.023 | [1] 0.012 | defactinib 0.084 | rucaparib 0.079 | [2] -0.031 | encorafenib -0.023 | [3] -0.022 | [4] 0.053 | filanesib 0.057 | zotarolimus -0.037 | idasanutlin 0.037 | alisertib -0.053 | [5] 0.037 | gefitinib -0.012 | [6] 0.06 | lapatinib 0.014 | pictilisib 0

AK4 (UniProt P27144)
inactive: saracatinib 0.018 | sotrastaurin 0.003 | alvocidib -0.035 | Tubastatin A -0.02 | [1] -0.063 | defactinib -0.023 | rucaparib -0.035 | [2] 0.014 | encorafenib 0.002 | [3] -0.036 | [4] 0.003 | filanesib -0.057 | zotarolimus -0.009 | idasanutlin -0.071 | alisertib 0.017 | [5] 0.023 | gefitinib -0.011 | [6] 0.059 | lapatinib -0.068 | pictilisib 0.047

AMDHD2 isoform 3 (UniProt Q9Y303)
inactive: saracatinib 0.031 | sotrastaurin 0.053 | alvocidib -0.024 | Tubastatin A 0.134 | [1] -0.011 | defactinib -0.018 | rucaparib -0.01 | [2] 0.011 | encorafenib -0.011 | [3] 0 | [4] -0.149 | filanesib -0.052 | zotarolimus -0.002 | idasanutlin -0.06 | alisertib -0.036 | [5] 0.094 | gefitinib -0.007 | [6] 0.027 | lapatinib -0.009 | pictilisib 0.058

AK3 (UniProt Q9UIJ7)
inactive: saracatinib -0.009 | sotrastaurin 0.051 | alvocidib 0.017 | Tubastatin A -0.022 | [1] -0.005 | defactinib 0.018 | rucaparib 0 | [2] -0.051 | encorafenib -0.016 | [3] 0.03 | [4] -0.071 | filanesib -0.042 | zotarolimus -0.019 | idasanutlin -0.055 | alisertib 0.006 | [5] 0.034 | gefitinib 0.006 | [6] 0.077 | lapatinib -0.035 | pictilisib 0.065

Reprinted at random: 2 entries already listed, in no set order.
AHCYL2 (UniProt Q96HN2)
inactive: saracatinib 0.012 | sotrastaurin 0.014 | alvocidib 0.078 | Tubastatin A -0.093 | [1] 0.037 | defactinib 0.017 | rucaparib -0.037 | [2] -0.013 | encorafenib -0.059 | [3] 0.011 | [4] 0.02 | filanesib -0.058 | zotarolimus -0.002 | idasanutlin -0.096 | alisertib -0.016 | [5] 0.041 | gefitinib 0.043 | [6] 0.028 | lapatinib -0.013 | pictilisib 0.075

AK3 (UniProt Q9UIJ7)
inactive: saracatinib -0.009 | sotrastaurin 0.051 | alvocidib 0.017 | Tubastatin A -0.022 | [1] -0.005 | defactinib 0.018 | rucaparib 0 | [2] -0.051 | encorafenib -0.016 | [3] 0.03 | [4] -0.071 | filanesib -0.042 | zotarolimus -0.019 | idasanutlin -0.055 | alisertib 0.006 | [5] 0.034 | gefitinib 0.006 | [6] 0.077 | lapatinib -0.035 | pictilisib 0.065

The list continues.

ALG13 (UniProt Q9NP73)
inactive: saracatinib 0.01 | sotrastaurin -0.12 | alvocidib -0.129 | Tubastatin A 0.045 | [1] 0.016 | defactinib -0.035 | rucaparib -0.002 | [2] 0.035 | encorafenib 0.016 | [3] 0.021 | [4] 0.016 | filanesib -0.008 | zotarolimus 0.008 | idasanutlin -0.059 | alisertib -0.036 | [5] -0.011 | gefitinib 0.068 | [6] 0.05 | lapatinib -0.022 | pictilisib 0.072

ALDH4A1 (UniProt P30038)
inactive: saracatinib 0.028 | sotrastaurin 0.047 | alvocidib -0.091 | Tubastatin A -0.034 | [1] 0.003 | defactinib -0.006 | rucaparib 0.064 | [2] 0.034 | encorafenib -0.01 | [3] -0.004 | [4] 0.05 | filanesib -0.144 | zotarolimus 0.064 | idasanutlin -0.037 | alisertib 0.044 | [5] -0.028 | gefitinib 0.028 | [6] 0.043 | lapatinib 0.007 | pictilisib 0.038

ALDH1L2 (UniProt Q3SY69)
inactive: saracatinib -0.011 | sotrastaurin 0.049 | alvocidib -0.181 | Tubastatin A -0.132 | [1] 0.06 | defactinib -0.164 | rucaparib 0.171 | [2] -0.035 | encorafenib 0.071 | [3] 0.068 | [4] -0.012 | filanesib -0.176 | zotarolimus -0.059 | idasanutlin -0.071 | alisertib 0.056 | [5] -0.13 | gefitinib 0.16 | [6] 0.093 | lapatinib 0.08 | pictilisib 0.06

AIFM1 (UniProt O95831)
inactive: saracatinib 0.008 | sotrastaurin 0.017 | alvocidib -0.017 | Tubastatin A -0.042 | [1] 0.011 | defactinib -0.014 | rucaparib -0.048 | [2] -0.04 | encorafenib -0.018 | [3] -0.003 | [4] -0.021 | filanesib -0.07 | zotarolimus -0.028 | idasanutlin -0.027 | alisertib -0.046 | [5] -0.005 | gefitinib 0.02 | [6] 0.03 | lapatinib -0.03 | pictilisib 0.015

ALG1 (UniProt Q9BT22)
inactive: saracatinib -0.006 | sotrastaurin -0.098 | alvocidib 0.015 | Tubastatin A -0.007 | [1] 0.081 | defactinib 0 | rucaparib -0.099 | [2] 0.008 | encorafenib 0.035 | [3] -0.06 | [4] -0.004 | filanesib -0.227 | zotarolimus 0.016 | idasanutlin -0.046 | alisertib -0.178 | [5] 0.14 | gefitinib 0 | [6] -0.043 | lapatinib 0.033 | pictilisib 0.078

ALDH16A1 (UniProt Q8IZ83)
inactive: saracatinib 0 | sotrastaurin 0.026 | alvocidib -0.026 | Tubastatin A 0.026 | [1] -0.039 | defactinib -0.03 | rucaparib -0.068 | [2] -0.026 | encorafenib -0.051 | [3] -0.004 | [4] -0.01 | filanesib -0.057 | zotarolimus -0.018 | idasanutlin -0.091 | alisertib -0.027 | [5] 0.013 | gefitinib 0.009 | [6] 0.057 | lapatinib -0.013 | pictilisib 0.086

AGPAT2 (UniProt O15120)
inactive: saracatinib 0.089 | sotrastaurin -0.034 | alvocidib 0.019 | Tubastatin A 0.114 | [1] 0.018 | defactinib -0.025 | rucaparib 0.012 | [2] 0.042 | encorafenib 0.002 | [3] 0.083 | [4] 0.055 | filanesib -0.038 | zotarolimus -0.023 | idasanutlin 0.021 | alisertib -0.106 | [5] -0.055 | gefitinib 0.038 | [6] 0.004 | lapatinib 0.107 | pictilisib 0.001

ADPGK (UniProt Q9BRR6)
inactive: saracatinib 0.044 | sotrastaurin 0.009 | alvocidib 0.001 | Tubastatin A -0.035 | [1] -0.031 | defactinib -0.033 | rucaparib 0 | [2] -0.035 | encorafenib -0.016 | [3] -0.002 | [4] 0.072 | filanesib -0.034 | zotarolimus -0.078 | idasanutlin -0.052 | alisertib -0.025 | [5] 0.025 | gefitinib -0.003 | [6] 0.003 | lapatinib -0.039 | pictilisib -0.002

ALG6 (UniProt Q9Y672)
inactive: saracatinib 0.07 | sotrastaurin -0.065 | alvocidib 0.055 | Tubastatin A 0.027 | [1] 0.038 | defactinib -0.118 | rucaparib -0.049 | [2] -0.026 | encorafenib 0.161 | [3] -0.019 | [4] -0.018 | filanesib -0.161 | zotarolimus -0.152 | idasanutlin -0.13 | alisertib -0.053 | [5] -0.017 | gefitinib -0.084 | [6] 0.104 | lapatinib -0.006 | pictilisib 0.058
